Results reported in article PMC4154131, “Molecular pathogenesis of Spondylocheirodysplastic Ehlers-Danlos syndrome caused by mutant ZIP13 proteins” (EMBO Molecular Medicine, 2014).
No constants are given. Whether binding was seen depends on the method and setting. In cells and extracts the contact can be indirect. Some binding calls cover weakened binding; strength is not graded here. Sequences can lack the tags named with a protein.

Assays:
[1] = target: T1, N-terminally 3xFLAG-tagged wild-type ZIP13 (human) (UniProt Q96H72); assay: co-IP; lysates of 293T cells transfected with FLAG- or V5-tagged ZIP13, 1% NP-40 lysis buffer; immunoprecipitation with anti-FLAG or anti-V5 antibody and protein G; endogenous VCP detected by Western blot with anti-VCP
T1 sequence: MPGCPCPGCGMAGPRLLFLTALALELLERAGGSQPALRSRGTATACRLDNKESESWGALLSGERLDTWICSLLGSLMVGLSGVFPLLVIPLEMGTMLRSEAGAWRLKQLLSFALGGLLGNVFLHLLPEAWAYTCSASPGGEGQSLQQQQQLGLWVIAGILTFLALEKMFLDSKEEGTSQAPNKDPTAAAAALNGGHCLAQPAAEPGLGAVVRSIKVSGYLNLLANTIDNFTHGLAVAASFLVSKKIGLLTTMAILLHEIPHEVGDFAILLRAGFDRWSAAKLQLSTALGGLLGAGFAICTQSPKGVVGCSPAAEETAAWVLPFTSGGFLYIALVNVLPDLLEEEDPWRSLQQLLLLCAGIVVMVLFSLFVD

[2] = target: T2, C-terminally V5 epitope-tagged wild-type ZIP13 (human) (UniProt Q96H72); assay: as above
T2 sequence: T1 sequence

valosin-containing protein (VCP) (from UniProt P55072 1-806)
binding [1]: binds
binding [2]: binds
